Read-outs that look alike come from different tables or passages of the source. Results are given in words; binding and its absence hold for the method and conditions named. Binding seen in cells or lysates may run through a third protein. Some entries that bind do so weakly or less than the wild type. Tags and fused reporters may be left off the sequences shown. Blank lines part the entries; values can stand above or below the molecule they belong to.
Tests used:
[1] = biological target: T1, flag-tagged HSPA12A (heat shock protein A12A) (mouse) (UniProt Q8K0U4); test: co-IP; WT primary mouse hepatocytes overexpressing flag-tagged HSPA12A (adenovirus), LPS 500 ng/ml for 6 h; cellular protein extracts precipitated with anti-flag antibody, blotted for C/EBPα, PPARγ, PGC-1α and HSPA12A; IgG and empty-virus (NC) controls
T1 sequence: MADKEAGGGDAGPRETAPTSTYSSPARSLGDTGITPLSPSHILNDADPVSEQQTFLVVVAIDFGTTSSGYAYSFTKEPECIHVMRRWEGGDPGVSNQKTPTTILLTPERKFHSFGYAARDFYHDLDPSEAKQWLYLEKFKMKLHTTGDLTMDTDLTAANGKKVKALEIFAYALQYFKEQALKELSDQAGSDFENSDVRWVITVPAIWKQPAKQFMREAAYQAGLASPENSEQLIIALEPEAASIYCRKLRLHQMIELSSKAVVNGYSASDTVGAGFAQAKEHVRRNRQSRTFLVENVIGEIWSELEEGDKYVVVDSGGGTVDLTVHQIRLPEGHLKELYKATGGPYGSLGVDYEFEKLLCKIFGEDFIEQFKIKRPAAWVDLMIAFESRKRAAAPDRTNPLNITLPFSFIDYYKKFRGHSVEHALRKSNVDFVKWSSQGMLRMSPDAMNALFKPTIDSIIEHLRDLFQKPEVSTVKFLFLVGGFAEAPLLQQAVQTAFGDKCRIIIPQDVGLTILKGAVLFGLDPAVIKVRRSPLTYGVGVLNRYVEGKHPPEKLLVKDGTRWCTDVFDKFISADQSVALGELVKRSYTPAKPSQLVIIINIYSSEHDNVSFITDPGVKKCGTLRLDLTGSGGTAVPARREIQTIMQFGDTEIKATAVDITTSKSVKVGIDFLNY

By UniProt entry, the sequences of proteins in these tests, tags left out.
UniProt P53566: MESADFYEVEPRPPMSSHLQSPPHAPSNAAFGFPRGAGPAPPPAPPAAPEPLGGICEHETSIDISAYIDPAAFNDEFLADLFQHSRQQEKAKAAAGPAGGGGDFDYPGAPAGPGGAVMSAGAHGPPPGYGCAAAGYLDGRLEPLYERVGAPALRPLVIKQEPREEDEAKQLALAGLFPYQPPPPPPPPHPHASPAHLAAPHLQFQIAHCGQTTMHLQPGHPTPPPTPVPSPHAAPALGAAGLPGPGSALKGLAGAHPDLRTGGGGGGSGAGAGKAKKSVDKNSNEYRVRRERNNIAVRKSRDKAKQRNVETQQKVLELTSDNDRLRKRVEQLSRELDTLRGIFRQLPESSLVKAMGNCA
UniProt P37238: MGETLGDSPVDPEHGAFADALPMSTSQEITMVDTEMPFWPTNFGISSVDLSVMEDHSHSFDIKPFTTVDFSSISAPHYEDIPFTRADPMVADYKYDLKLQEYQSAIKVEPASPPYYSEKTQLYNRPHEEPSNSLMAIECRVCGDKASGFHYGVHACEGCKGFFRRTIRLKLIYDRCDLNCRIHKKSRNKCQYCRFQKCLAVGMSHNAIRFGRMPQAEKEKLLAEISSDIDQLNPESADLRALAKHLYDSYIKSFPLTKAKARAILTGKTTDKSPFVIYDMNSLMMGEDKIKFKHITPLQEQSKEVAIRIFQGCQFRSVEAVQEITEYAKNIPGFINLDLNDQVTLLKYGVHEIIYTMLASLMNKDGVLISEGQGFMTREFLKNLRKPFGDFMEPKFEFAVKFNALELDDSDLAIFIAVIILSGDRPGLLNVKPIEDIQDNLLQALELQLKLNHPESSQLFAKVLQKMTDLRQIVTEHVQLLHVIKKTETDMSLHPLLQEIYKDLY

[2] = biological target: T1, flag-tagged HSPA12A (heat shock protein A12A) (mouse); test: as above; remark: listed apart in the source

- binding [1]: no binding
Molecule: CCAAT/enhancer-binding protein alpha (C/EBPα) (from UniProt P53566 1-359)

- binding [1]: no binding
Molecule: peroxisome proliferator-activated receptor gamma (PPARγ) (from UniProt P37238 1-505)

- binding [2]: binds
B1: peroxisome proliferator-activated receptor γ coactivator 1α (PGC-1α) of 113 kDa (protein, UniProt O70343 1-797)
chain: MAWDMCSQDSVWSDIECAALVGEDQPLCPDLPELDLSELDVNDLDTDSFLGGLKWCSDQSEIISNQYNNEPANIFEKIDEENEANLLAVLTETLDSLPVDEDGLPSFDALTDGAVTTDNEASPSSMPDGTPPPQEAEEPSLLKKLLLAPANTQLSYNECSGLSTQNHAANHTHRIRTNPAIVKTENSWSNKAKSICQQQKPQRRPCSELLKYLTTNDDPPHTKPTENRNSSRDKCASKKKSHTQPQSQHAQAKPTTLSLPLTPESPNDPKGSPFENKTIERTLSVELSGTAGLTPPTTPPHKANQDNPFKASPKLKPSCKTVVPPPTKRARYSECSGTQGSHSTKKGPEQSELYAQLSKSSGLSRGHEERKTKRPSLRLFGDHDYCQSLNSKTDILINISQELQDSRQLDFKDASCDWQGHICSSTDSGQCYLRETLEASKQVSPCSTRKQLQDQEIRAELNKHFGHPCQAVFDDKSDKTSELRDGDFSNEQFSKLPVFINSGLAMDGLFDDSEDESDKLSYPWDGTQPYSLFDVSPSCSSFNSPCRDSVSPPKSLFSQRPQRMRSRSRSFSRHRSCSRSPYSRSRSRSPGSRSSSRSCYYYESSHYRHRTHRNSPLYVRSRSRSPYSRRPRYDSYEAYEHERLKRDEYRKEHEKRESERAKQRERQKQKAIEERRVIYVGKIRPDTTRTELRDRFEVFGEIEECTVNLRDDGDSYGFITYRYTCDAFAALENGYTLRRSNETDFELYFCGRKQFFKSNYADLDTNSDDFDPASTKSKYDSLDFDSLLKEAQRSLRR

Reference: publication PMC7429872
